According to US20220001039A1, “COMPOSITIONS AND METHODS FOR DETECTING ACE2 EXPRESSION PROFILES” (Washington University, priority 2020, published 2022):
Part of at least one peptide drawing is inferred or uncertain, most often the ends.

Sequences of proteins named here, by UniProt entry; tags and fusion partners are left off. Residues count along the entry.
UniProt Q9BYF1, 18-805: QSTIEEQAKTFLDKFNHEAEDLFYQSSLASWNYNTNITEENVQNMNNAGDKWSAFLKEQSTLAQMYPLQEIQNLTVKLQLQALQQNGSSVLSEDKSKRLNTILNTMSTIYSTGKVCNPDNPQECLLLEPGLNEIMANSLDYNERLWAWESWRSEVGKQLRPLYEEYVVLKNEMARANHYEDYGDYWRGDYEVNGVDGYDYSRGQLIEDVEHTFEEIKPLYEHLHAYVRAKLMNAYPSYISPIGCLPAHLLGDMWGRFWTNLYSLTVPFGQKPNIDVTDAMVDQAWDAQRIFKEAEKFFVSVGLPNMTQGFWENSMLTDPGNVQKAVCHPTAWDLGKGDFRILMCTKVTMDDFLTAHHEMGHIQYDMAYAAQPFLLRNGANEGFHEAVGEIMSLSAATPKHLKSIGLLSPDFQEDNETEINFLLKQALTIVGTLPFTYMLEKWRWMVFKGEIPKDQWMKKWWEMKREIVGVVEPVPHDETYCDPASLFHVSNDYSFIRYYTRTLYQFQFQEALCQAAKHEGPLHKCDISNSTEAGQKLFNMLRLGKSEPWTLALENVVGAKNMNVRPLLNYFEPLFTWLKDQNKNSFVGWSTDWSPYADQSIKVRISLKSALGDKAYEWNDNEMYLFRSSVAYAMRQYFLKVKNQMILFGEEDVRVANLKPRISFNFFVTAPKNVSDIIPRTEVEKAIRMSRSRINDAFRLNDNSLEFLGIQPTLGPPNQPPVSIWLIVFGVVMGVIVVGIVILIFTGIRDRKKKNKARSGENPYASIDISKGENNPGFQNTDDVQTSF

Assays:
HEK293-hACE2 cells = experiment: In vitro uptake and internalization of 64Cu-HZ20 in hACE2-positive cells; format: cell-based, human
ACE2 = ACE2 (Homo sapiens, UniProt Q9BYF1); conditions: cited from earlier work

Row | SMILES | fraction of total bound tracer internalized (HEK293-hACE2 cells; HEK293-hACE2 cells, 37° C.) [%] | time after exposure at which membrane-bound and internalized tracer was detected (HEK293-hACE2 cells; hACE2-expressing cells) [min] | membrane-bound and internalized tracer (HEK293-hACE2 cells; hACE2-expressing vs vehicle HEK293T cells, 120 minutes of incubation) | stability to ACE2 catalyzed hydrolysis (ACE2)
1 | CC(C)C[C@@H]1NC(=O)[C@@H]2CCCN2C(=O)[C@H](CO)NC(=O)[C@@H](NC(=O)[C@H](Cc2c[nH]cn2)NC(=O)[C@H](CO)NC(=O)[C@H](Cc2ccc(O)cc2)NC(=O)[C@H](CC(=O)O)NC(=O)CNC(=O)CCC(C(=O)O)N2CCN(CC(=O)O)CCN(CC(=O)O)CC2)CSSC[C@@H](C(=O)N[C@H](C(=O)N[C@@H](Cc2ccc(O)cc2)C(=O)N2CCC[C@H]2C(=O)N[C@@H](CC(=O)O)C(=O)N2CCC[C@H]2C(=O)N[C@@H](CCC(=O)O)C(=O)NCC(=O)NCC(=O)NCC(N)=O)[C@@H](C)O)NC(=O)[C@H](CCCCN)NC(=O)[C@H](Cc2c[nH]c3ccccc23)NC(=O)[C@H](Cc2c[nH]c3ccccc23)NC(=O)[C@@H]2CCCN2C(=O)[C@H](Cc2ccc(O)cc2)NC(=O)[C@H](Cc2ccc(O)cc2)NC(=O)[C@H](CCCNC(=N)N)NC1=O (stereo partly shown) [64Cu-HZ20, metal not drawn] | 71±4 | ≤ 15 | detected in the HEK293T cells engineered to express hACE2 (AdV-hACE2) vector, but not in the vector-expressing HEK293T cell cultures | 
2 | CC(=O)NCC(=O)N[C@@H](CC(=O)O)C(=O)N[C@@H](Cc1ccc(O)cc1)C(=O)N[C@@H](CO)C(=O)N[C@@H](Cc1c[nH]cn1)C(=O)N[C@H]1CSSC[C@@H](C(=O)N[C@H](C(=O)N[C@@H](Cc2ccc(O)cc2)C(=O)N2CCC[C@H]2C(=O)N[C@@H](CC(=O)O)C(=O)N2CCC[C@H]2C(=O)N[C@@H](CCC(=O)O)C(=O)NCC(=O)NCC(=O)NCC(N)=O)[C@@H](C)O)NC(=O)[C@H](CCCCN)NC(=O)[C@H](Cc2c[nH]c3ccccc23)NC(=O)[C@H](Cc2c[nH]c3ccccc23)NC(=O)[C@@H]2CCCN2C(=O)[C@H](Cc2ccc(O)cc2)NC(=O)[C@H](Cc2ccc(O)cc2)NC(=O)[C@H](CCCNC(=N)N)NC(=O)[C@H](CC(C)C)NC(=O)[C@@H]2CCCN2C(=O)[C@H](CO)NC1=O [DX600] |  |  |  | stable
